Paper PMC7819943, “Rice protein-binding microarrays: a tool to detect cis-acting elements near promoter regions in rice”
Some of the results follow.

By UniProt entry, the sequences of proteins in these tests, tags left out.
UniProt Q0JBA9, entry or part of it: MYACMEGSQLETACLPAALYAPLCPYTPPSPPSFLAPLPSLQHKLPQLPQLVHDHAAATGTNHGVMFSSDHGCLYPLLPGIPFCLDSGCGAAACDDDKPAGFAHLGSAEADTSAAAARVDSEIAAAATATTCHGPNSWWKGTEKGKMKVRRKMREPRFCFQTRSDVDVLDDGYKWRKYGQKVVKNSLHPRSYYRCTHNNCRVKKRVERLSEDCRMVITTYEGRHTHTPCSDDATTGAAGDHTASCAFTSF

Molecular target: OsWRKY34 (Oryza sativa, UniProt Q0JBA9 1-250)
Test: protein-binding microarray (RPBM); PBS, 2% BSA, 51.3 ng/ul salmon testes DNA, 50 uM zinc acetate, 200 nM TF, 25 C, 1 h; high values mean tight binding
Conditions: protein: recombinant; tags: N-terminal polyhistidine and DsRed monomer fusion (pET32a); label: CyDye5-dUTP incorporated in the synthesized complementary strand; 3' TTTTT single-stranded linker to array surface; dsDNA, one strand shown
In short: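 For the binding signal, per-feature fluorescence intensity was read in arbitrary units on an Axon 4000B scanner. Before scanning, a 2% BSA-blocked custom Agilent array made double-stranded with Cy5-dUTP was washed after 1 h at 25 °C with 200 nM protein and 50 µM zinc acetate. The proteins were Ni–NTA-purified transcription factors with N-terminal polyhistidine and DsRed fusions, expressed in E. coli BL21-CodonPlus.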

Row | Sequence | binding signal
1 | TTAATTGATGAAGTTGTCTTGTGGGGTAGCAGCACTTTGACGGAGTCACCTAGTGCAG | 8320 fluorescence intensity (a.u.)
2 | CTGCCGGAGAGAGAGAGGGAGGGTGAGGGGTCGCGCGCGCCGGAGTCACCTAGTGCAG | 8480 fluorescence intensity (a.u.)
3 | CTACTGTTTTACTTCTAAATGTTTGCTAAATGCTGCTTTTCGGAGTCACCTAGTGCAG | 8200 fluorescence intensity (a.u.)
4 | CGATGCGCGACCTCGCCCGCCGCCACGGCCCGCTCATGCTCGGAGTCACCTAGTGCAG | 8410 fluorescence intensity (a.u.)
5 | CTCCCTCCATCCCAAAATGTTTGACGCCGTTGACTTTTTACGGAGTCACCTAGTGCAG | 15900 fluorescence intensity (a.u.)
6 | TCAGCTTTGATACAAATCCGATCTTCTCCTTTTCGTTTTTCGGAGTCACCTAGTGCAG | 11100 fluorescence intensity (a.u.)
7 | TTCTCGGCCTCAACTCCCGTCTCCTCGCTAGTTCGCCCGCCGGAGTCACCTAGTGCAG | 13300 fluorescence intensity (a.u.)
8 | CCAAACGGCCACCTCACTCTCCCTCTCTCTATCTCTCTCTCGGAGTCACCTAGTGCAG | 10100 fluorescence intensity (a.u.)
9 | TAATCTCATCCTCATTGTTTTCTTCTCTTCTTTTTCTCTTCGGAGTCACCTAGTGCAG | 10700 fluorescence intensity (a.u.)
10 | CCAGTGTCCGGACTTGTATATTTGAGATTCTAGCGGTGTCCGGAGTCACCTAGTGCAG | 8860 fluorescence intensity (a.u.)
11 | GTAGGAGTTGAGTTTTTTTTTTTTTTTTTTTTTTTACGGACGGAGTCACCTAGTGCAG | 8440 fluorescence intensity (a.u.)
12 | TCCTTGGGCTTTTTTTCTTGTTCGGGGTTGAGAGGCAATGCGGAGTCACCTAGTGCAG | 18700 fluorescence intensity (a.u.)
13 | ATCTCTTGTGGCTTTTTTTTGTGTGTGCATGCTGATAGCTCGGAGTCACCTAGTGCAG | 8930 fluorescence intensity (a.u.)
14 | GCTGTTCCCGTTCCTTGCCTTCGGCCACATCAGCCCGTTCCGGAGTCACCTAGTGCAG | 9530 fluorescence intensity (a.u.)
15 | ATTCCCCTACCTCGCTCGTCTTCCATGTTTCCGATAGCTCCGGAGTCACCTAGTGCAG | 15100 fluorescence intensity (a.u.)
16 | GGCTATCCCCACACAATGTTGCTTTATCGTCTTATCCACGCGGAGTCACCTAGTGCAG | 8410 fluorescence intensity (a.u.)
17 | GCTTTTTCTTTTGCATTGGTTGTGCCTGTGTACAGAGGTACGGAGTCACCTAGTGCAG | 8680 fluorescence intensity (a.u.)
18 | ACCCAGGCGCTCTGGCTTGCTCGACTGCTTAGTGATCTCCCGGAGTCACCTAGTGCAG | 8400 fluorescence intensity (a.u.)
19 | CACACCTACCCGAGGAAGAGGAGGAGGTGGGGTGGCCATGCGGAGTCACCTAGTGCAG | 9100 fluorescence intensity (a.u.)
20 | GTGGCGACTGTTATCCCTAATTTTGCGGACTTGCTCTGATCGGAGTCACCTAGTGCAG | 9800 fluorescence intensity (a.u.)
21 | GTCGTTTTATCCTTTACATATAACCGATGGTAAAATAATTCGGAGTCACCTAGTGCAG | 8390 fluorescence intensity (a.u.)
22 | TCTCCCTACCTGCGCAATTAGTTTTTAAATTTATCTATATCGGAGTCACCTAGTGCAG | 10300 fluorescence intensity (a.u.)
23 | ACTAGGAGGGGTCACATGTTGGTTTTTTTAGGACGGAGAGCGGAGTCACCTAGTGCAG | 8020 fluorescence intensity (a.u.)
24 | TTACATTTTAGGACATATATTTGGGGAGCTTCTTGGCTGTCGGAGTCACCTAGTGCAG | 10800 fluorescence intensity (a.u.)
25 | GAACACCATGTCTGCCATGTCCGCGTGCATAAACACCGTCCGGAGTCACCTAGTGCAG | 9470 fluorescence intensity (a.u.)
26 | TTAACTAACTGCGTCATCGCCACCGTCGTCATGGCATCTTCGGAGTCACCTAGTGCAG | 9320 fluorescence intensity (a.u.)
27 | CTCACTTGACCGTGAACAGCACTCACTTGATTTGTACTTTCGGAGTCACCTAGTGCAG | 10000 fluorescence intensity (a.u.)

Row | Sequence | binding signal
28 | TTGGTTAGGAGCTGTTTTGTTTGTTGGGTTGAAATCGTCACGGAGTCACCTAGTGCAG | 10200 fluorescence intensity (a.u.)
29 | ATCATATTGCTGTCGACCTGTCGTTCATCCGAGCTGCTTTCGGAGTCACCTAGTGCAG | 11900 fluorescence intensity (a.u.)
30 | GGCCCCACGTTTCATCCTCACGACCGTGTCCAACCCAGGGCGGAGTCACCTAGTGCAG | 10300 fluorescence intensity (a.u.)
31 | GGTGCGTTTTAGGTGTGTTTAGTTCGCGAAAAGAAAATTTCGGAGTCACCTAGTGCAG | 11200 fluorescence intensity (a.u.)
32 | CACATCATCTTCGATCTCGCCCTGGTTCGAGTCAATTCATCGGAGTCACCTAGTGCAG | 11500 fluorescence intensity (a.u.)
33 | CTATCTGGTTTAGGGTTTAGGGTTTATATGTATGTAAAATCGGAGTCACCTAGTGCAG | 8900 fluorescence intensity (a.u.)
34 | ATTCAATGCTTATCGGGGTTAGATCTTTCTAGCTATGATTCGGAGTCACCTAGTGCAG | 11700 fluorescence intensity (a.u.)
35 | ACTTCTTTTGGGCTTTTCTTTTGCAATAGAACGTTTTGGACGGAGTCACCTAGTGCAG | 8410 fluorescence intensity (a.u.)
36 | ATCAGTGGTATAAAAAGGGGTAGAGGGAGGGTGGCCTCCACGGAGTCACCTAGTGCAG | 8900 fluorescence intensity (a.u.)
37 | TTCCTAAATATTTACGACGTTGACTTTTTTAAAAATGTTTCGGAGTCACCTAGTGCAG | 20100 fluorescence intensity (a.u.)
38 | ATTTTTACATGTCTATCTTTTTTGTGTGTAGTACATAAATCGGAGTCACCTAGTGCAG | 8270 fluorescence intensity (a.u.)
39 | ACCTCCTGGTCCTGTTACTACCACTGCATTAATTGTGTTTCGGAGTCACCTAGTGCAG | 9710 fluorescence intensity (a.u.)
40 | AACTCGATGATGATGTCGCCACGACGCCTTGTATATATTTCGGAGTCACCTAGTGCAG | 8190 fluorescence intensity (a.u.)
41 | AACCCTTGACTGTGGATATGCATGACACTTCTATTTTACCCGGAGTCACCTAGTGCAG | 8080 fluorescence intensity (a.u.)
42 | GATATGCCTCTGTGGATGCAATTGATCTCCTTTGACTTTTCGGAGTCACCTAGTGCAG | 9370 fluorescence intensity (a.u.)
43 | TGGTTTGGTCTAGTTCTAGGAGTGTACTACATGTGCGTGCCGGAGTCACCTAGTGCAG | 11200 fluorescence intensity (a.u.)
44 | CCACGTAGGCGCCACGTCAGCCAAAACCGCTCTTAAAACCCGGAGTCACCTAGTGCAG | 8110 fluorescence intensity (a.u.)
45 | ATTGTGTACTGGATGATCATGCATTTTATGATTGTATTAACGGAGTCACCTAGTGCAG | 8860 fluorescence intensity (a.u.)
46 | AGCAAATCAAGGTTTAGTTTTCTTCCCTTTGAGGCTTTCACGGAGTCACCTAGTGCAG | 8180 fluorescence intensity (a.u.)
47 | ACCTGTTTGTTGTTGTTGTCGTCGTCGTCTTCTCCTACCTCGGAGTCACCTAGTGCAG | 14000 fluorescence intensity (a.u.)
48 | AAATATCTACGTTTAGTTTGTTGTCAAATTTGGTCAACATCGGAGTCACCTAGTGCAG | 9160 fluorescence intensity (a.u.)
49 | CCCTTCGGCCGTGCCCGTGCGCCGGTCGACGTCGCCGTCTCGGAGTCACCTAGTGCAG | 8540 fluorescence intensity (a.u.)
50 | CGCCCGCCTCCCCGCTCACATGCGCGCAACCACCGCCATGCGGAGTCACCTAGTGCAG | 8390 fluorescence intensity (a.u.)
51 | TTATATTATGTTTTTTCTGCCTTTTTTCTTTTTTTCCCCTCGGAGTCACCTAGTGCAG | 8700 ± 342 fluorescence intensity (a.u.)
52 | TTTGGGACGGAGGGAGTTCTTCATTTTTTTTCTCTCAATTCGGAGTCACCTAGTGCAG | 10500 fluorescence intensity (a.u.)
53 | AGCTCTGGATTGCATCCCCAATCCCCTGTGTGTATTGACTCGGAGTCACCTAGTGCAG | 8260 fluorescence intensity (a.u.)
54 | TCGATCTCCGTCCAATGCGCTCGCCGCCGCCGCCGCCATGCGGAGTCACCTAGTGCAG | 8470 fluorescence intensity (a.u.)

Some of the entries above in a different format:
Row	Sequence	binding signal
38	ATTTTTACATGTCTATCTTTTTTGTGTGTAGTACATAAATCGGAGTCACCTAGTGCAG	8270 fluorescence intensity (a.u.)
43	TGGTTTGGTCTAGTTCTAGGAGTGTACTACATGTGCGTGCCGGAGTCACCTAGTGCAG	11200 fluorescence intensity (a.u.)
